Laboratory results as given in US20160113958A1, “MODULATORS OF ADP-DEPENDENT GLUCOKINASE (ADPGK) AND GLYCEROL-3-PHOSPHATE DEHYDROGENASE (GPD2) FOR THERAPY” (DEUTSCHES KREBSFORSCHUNGSZENTRUM STIFTUNG DES ÖFFENTLICHEN …, priority 2011, published 2016).
At least one structure is not confirmed: it was looked up by name or label, or the drawing left a doubt.

Assays:
[1] = tested on: in vitro expanded peripheral human T cells; assay: Determination of ROS generation (activation-induced oxidative signal, H2DCF-DA, FACS); format: cell-based; details: 20 min pre-incubation, 1 h plate-bound anti-CD3 antibody (30 μg/ml)
Description: T cell line Jurkat J16-145 cells, J16 sub-clone (2), were cultured in RPMI 1640 (+L-glutamine), 10% foetal calf serum (FCS). Gaussia luciferase NF-κB reporter J16-145 cells were cultured in IMDM, 10% FCS. Freshly isolated (“resting”) or phytohemagglutinin (PHA)-activated and 6-8 days in vitro expanded (“pre-activated”) peripheral human T cells were cultured at initial concentration of 2×10^6 cells/ml in RPMI 1640 (+L-glutamine), 10% FCS. For pre-activation-induced expansion, “resting” T cells were treated with 1 μg/ml PHA for 16 h, washed and subsequently cultured in the presence of 25 U/ml IL-2 for 6-8 days. These cells are referred to as “T cells” in the text, if not stated differently.
Cells were stained with H2DCF-DA (5 μM) for 30 min. Next, cells were divided and 1 h stimulated with either plate-bound anti-CD3 antibody (30 μg/ml) or PMA (10 ng/ml). Treatment was terminated by ice-cold PBS and ROS generation was determined by FACS analysis (Canto II, Becton Dickinson). ROS generation was quantified as the increase in mean fluorescence intensity (MFI), calculated according to the following formula: increase in MFI (%)=[(MFIstimulated−MFIunstimulated)/MFIunstimulated]×100 (3).

T cells = assay: Real time qRT-PCR of activation-induced NF-κB-dependent gene expression; format: cell-based, human; details: T cells pre-incubated in culture medium + BrPyr (20 min), 1 h stimulation

O=C(O)C(=O)CBr [BrPyr, 3-bromopyruvate]
TCR-induced mitochondrial ROS generation [1]: complete inhibition | activation-induced NF-κB-dependent IL-2, IL-4 and IκBα gene expression (T cells): complete inhibition
